Article PMC12284529
No constants are given. Whether binding was seen depends on the method and setting. In cells and extracts the contact can be indirect. A result given as binding can be weak or reduced; the word gives no strength.

Legend:
[1] = target: GST-HIPK4; test: pull-down; GST fusions from bacteria coupled to glutathione-Sepharose 4B beads, incubated with 293T cells for 2 h at 4 °C; washed with GST-binding buffer; Western blot with anti-TAp63 or HIPK4 antibodies; only the target purified
[2] = target: Flag-HIPK4 (H136D); test: co-IP; cells (A431) transfected with Flag-tagged TAp63 or HIPK4 constructs; lysates incubated overnight with sepharose CL-4B beads pre-bound to IgG, TAp63, Flag or HIPK4 antibodies; Western blot
[3] = target: Flag-HIPK4 (WT); test: as above

| Binder | binding [1] | binding [2] | binding [3] |
| --- | --- | --- | --- |
| TAp63 in 293T cells (protein, UniProt Q9H3D4 1-680) MNFETSRCATLQYCPDPYIQRFVETPAHFSWKESYYRSTMSQSTQTNEFLSPEVFQHIWDFLEQPICSVQPIDLNFVDEPSEDGATNKIEISMDCIRMQDSDLSDPMWPQYTNLGLLNSMDQQIQNGSSSTSPYNTDHAQNSVTAPSPYAQPSSTFDALSPSPAIPSNTDYPGPHSFDVSFQQSSTAKSATWTYSTELKKLYCQIAKTCPIQIKVMTPPPQGAVIRAMPVYKKAEHVTEVVKRCPNHELSREFNEGQIAPPSHLIRVEGNSHAQYVEDPITGRQSVLVPYEPPQVGTEFTTVLYNFMCNSSCVGGMNRRPILIIVTLETRDGQVLGRRCFEARICACPGRDRKADEDSIRKQQVSDSTKNGDGTKRPFRQNTHGIQMTSIKKRRSPDDELLYLPVRGRETYEMLLKIKESLELMQYLPQHTIETYRQQQQQQHQHLLQKQTSIQSPSSYGNSSPPLNKMNSMNKLPSVSQLINPQQRNALTPTTIPDGMGANIPMMGTHMPMAGDMNGLSPTQALPPPLSMPSTSHCTPPPPYPTDCSIVSFLARLGCSSCLDYFTTQGLTTIYQIEHYSMDDLASLKIPEQFRHAIWKGILDHRQLHEFSSPSHLLRTPSSASTVSVGSSETRGERVIDAVRFTLRQTISFPPRDEWNDFNFDMDARRNKQQRIKEEGE | binds |  |  |
| TAp63, endogenous in A431 cells (protein, UniProt Q9H3D4 1-680) MNFETSRCATLQYCPDPYIQRFVETPAHFSWKESYYRSTMSQSTQTNEFLSPEVFQHIWDFLEQPICSVQPIDLNFVDEPSEDGATNKIEISMDCIRMQDSDLSDPMWPQYTNLGLLNSMDQQIQNGSSSTSPYNTDHAQNSVTAPSPYAQPSSTFDALSPSPAIPSNTDYPGPHSFDVSFQQSSTAKSATWTYSTELKKLYCQIAKTCPIQIKVMTPPPQGAVIRAMPVYKKAEHVTEVVKRCPNHELSREFNEGQIAPPSHLIRVEGNSHAQYVEDPITGRQSVLVPYEPPQVGTEFTTVLYNFMCNSSCVGGMNRRPILIIVTLETRDGQVLGRRCFEARICACPGRDRKADEDSIRKQQVSDSTKNGDGTKRPFRQNTHGIQMTSIKKRRSPDDELLYLPVRGRETYEMLLKIKESLELMQYLPQHTIETYRQQQQQQHQHLLQKQTSIQSPSSYGNSSPPLNKMNSMNKLPSVSQLINPQQRNALTPTTIPDGMGANIPMMGTHMPMAGDMNGLSPTQALPPPLSMPSTSHCTPPPPYPTDCSIVSFLARLGCSSCLDYFTTQGLTTIYQIEHYSMDDLASLKIPEQFRHAIWKGILDHRQLHEFSSPSHLLRTPSSASTVSVGSSETRGERVIDAVRFTLRQTISFPPRDEWNDFNFDMDARRNKQQRIKEEGE |  | binds | binds |
